This assay has as its target T1, FADD (Fas-associated death domain protein) (mouse (endogenous in Eph4)) (UniProt Q61160).
T1 sequence: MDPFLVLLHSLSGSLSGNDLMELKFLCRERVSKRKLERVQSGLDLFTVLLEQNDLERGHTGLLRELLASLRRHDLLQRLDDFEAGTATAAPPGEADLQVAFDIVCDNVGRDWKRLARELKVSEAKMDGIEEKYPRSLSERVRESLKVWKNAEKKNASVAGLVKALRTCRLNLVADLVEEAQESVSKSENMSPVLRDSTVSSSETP
Put plainly: co-IP; Eph4 cells treated with 800 uM LYHY peptide for 5 hrs or left untreated; lysate (1% Triton X-100, 150 mM NaCl, 500 ug protein) precipitated with mouse anti-FADD antibody and protein A/G agarose beads at room temperature, washes including 500 mM NaCl; blotted with rabbit anti-occludin ….

These are yes or no findings as the source states them, for the method shown. In cells and extracts the contact can be indirect. Some binding calls cover weakened binding; strength is not graded here.

B1: occludin (protein, UniProt Q61146 1-521)
chain: MSVRPFESPPPYRPDEFKPNHYAPSNDMYGGEMHVRPMLSQPAYSFYPEDEILHFYKWTSPPGVIRILSMLIIVMCIAIFACVASTLAWDRGYGTGLFGGSLNYPYSGFGYGGGYGGGYGGYGYGYGGYTDPRAAKGFLLAMAAFCFIASLVIFVTSVIRSGMSRTRRYYLIVIIVSAILGIMVFIATIVYIMGVNPTAQASGSMYGSQIYMICNQFYTPGGTGLYVDQYLYHYCVVDPQEAIAIVLGFMIIVAFALIIFFAVKTRRKMDRYDKSNILWDKEHIYDEQPPNVEEWVKNVSAGTQDMPPPPSDYAERVDSPMAYSSNGKVNGKRSYPESFYKSTPLVPEVAQEIPLTLSVDDFRQPRYSSNGNLETPSKRAPTKGKAGKGKRTDPDHYETDYTTGGESCEELEEDWVREYPPITSDQQRQLYKRNFDAGLQEYKSLQAELDDVNKELSRLDKELDDYREESEEYMAAADEYNRLKQVKGSADYKSKRNYCKQLKSKLSHIKRMVGDYDRRKP
B1: the binding result is reported as “binds”.

The values are drawn from article PMC2796999.
